Experimental data: patent publication US20230039219A1, “Improved Cell-Permeable Nuclear Import Inhibitor Synthetic Peptide for Inhibition of Cytokine Storm or Inflammatory Disease and Use Thereof” (priority 2020, published 2023)
Where two headings read alike, the source gives them in different places. Part of at least one peptide drawing is inferred or uncertain, most often the ends. Bridge positions count the residues as written; N and C are the ends. Peptide text beside a SMILES is read from it.

Experiments:
CLP induced peritonitis = assay: Cecal ligation and puncture (CLP)-induced peritonitis model; type: in vivo, C57BL/6 mice; conditions: compared with the antibiotic Meropenem alone; FIG. 21
CS induced peritonitis = assay: Cecal slurry (CS)-induced peritonitis model; type: in vivo, C57BL/6 mice; conditions: compared with the antibiotic Meropenem alone; FIG. 22
[1] = system: Poly I:C/SEB systemic inflammation; set-up: species or system C57BL/6 mice; conditions: mouse, in vivo
SARS-CoV-2 = type: in vivo, rhesus macaques (RM) and African green monkeys (AGM); conditions: for reduction rate of viral titers: FIG. 35
[2] = system: LPS/D-Gal acute liver injury model; assay: LPS/D-galactosamine-induced acute liver injury model
[3] = system: LPS/Poly I:C induced pneumonitis; assay: Intratracheal LPS/Poly I:C induced pneumonitis model; conditions: treatments starting 4 hours after Poly I:C; FIG. 18

Structure (SMILES): CC[C@H](C)[C@H](N)C(=O)N[C@@H](C)C(=O)N[C@@H](C)C(=O)N[C@H](C(=O)N[C@@H](CC(C)C)C(=O)N[C@@H](C)C(=O)N[C@@H](C)C(=O)N1CCC[C@H]1C(=O)N[C@@H](C)C(=O)N[C@@H](CC(C)C)C(=O)N[C@H](C(=O)N1CCC[C@H]1C(=O)N[C@H]1CSSC[C@@H](C(=O)O)NC(=O)[C@@H]2CCCN2C(=O)[C@H](CCSC)NC(=O)[C@H](CC(C)C)NC(=O)[C@H](CCCCN)NC(=O)[C@H](CCC(N)=O)NC(=O)[C@H](CCCNC(=N)N)NC(=O)[C@H](CCCCN)NC(=O)[C@H](CCCNC(=N)N)NC(=O)[C@H](CCC(N)=O)NC(=O)[C@H](C(C)C)NC1=O)C(C)C)C(C)C [iCP-NI] (H-IAAVLAAPALVPCVQRKRQKLMPC-OH; disulfide 13-24; N-terminus and C-terminus assumed)
- survival (CLP induced peritonitis): enhanced survival
- survival (CS induced peritonitis): enhanced survival
- alveolar volume in the lungs [1]: reduced
- increases in cellularity, neutrophil infiltration (Ly-6G positive cells) and neutrophil counts [1]: suppressed
- neutrophil infiltration and counts in liver [1]: reduced
- number of apoptotic cells in the spleen [1]: reductions
- blood glucose level (SARS-CoV-2; 1 to 5 dpi, FIG. 33): 103 mg/dL
- heart rate (SARS-CoV-2; 1 to 5 dpi, FIG. 33): 113 times
- oxygen saturation (SARS-CoV-2; 1 to 5 dpi, FIG. 33): 98%
- respiratory rate (SARS-CoV-2; 1 to 5 dpi, FIG. 33): 20 times per minute
- MCP-1 (SARS-CoV-2; BALF, 5 days following infection, FIG. 34): 24.87 pg/mL
- decrease of MCP-1 (SARS-CoV-2; BALF, from 2010.9 pg/mL): 99.9%
- reduction rate of viral titers (SARS-CoV-2; fully established SARS-CoV-2 monkey model, compared with first day of administration (before treatment)): 91%
- immune cell infiltration, hyperplasia, hemorrhage and fibroplasia in the lungs (SARS-CoV-2; histopathology, FIG. 36): not observed
- reduction rate of viral titers (SARS-CoV-2; non-established group): 98%
- reduction rate of viral titers (SARS-CoV-2; partially established group): 37%
- effect on survival, comparison in words ([2]; LPS/D-Gal challenge, FIG. 1, 2, 4): equally effective
- survival ([2]; four 5 mg/Kg treatments): 25%
- survival ([2]; four 10 mg/Kg treatments): 38%
- survival ([2]; intravenously administered, n=163, FIG. 15): 100%
- therapeutic effect ([2]; therapeutic protocol, six times 50 mg/kg, FIG. 5): 60%
- survival [3]: 84%
- therapeutic efficacy [3]: 70.6%
